Experimental data taken from US20160009755A1, “CYRRHETINIC ALKYL ESTERS AND PROTECTED DERIVATIVES THEREOF” (priority 2013, published 2016).

Tested on: secreted IL-8 in normal human epidermal keratinocytes (NHEK)
Experiment: IL-8 secretion in PMA-stimulated NHEK (anti-inflammatory test)
Type: cell-based
Conditions: 10^−9M
Experimental: It is believed that the […] compounds of the present invention are useful for reducing inflammation in human skin. In an exemplary test, NHEK were cultured in a medium for 24 hours. The cells were then treated or not (control) with either […] methyl ester or the reference compound (staurosporine) and pre-incubated for 24 hours. Then the culture medium was removed and replaced with another culture medium containing or not (control) the […] methyl ester or the reference compound and containing an inflammatory inducer (PMA) and the cells were incubated for 24 hours. A control without inducer was performed in parallel. After incubation, the culture supernatants were collected in order to measure the quantity of secreted IL-8.

Q: With `CN[C@@H]1C[C@H]2O[C@@](C)([C@@H]1OC)n1c3ccccc3c3c4c(c5c6ccccc6n2c5c31)C(=O)NC4` [Staurosporine, staurosporine] as the compound, how does the inhibition at 0.001 µM read?
A: Its inhibition at 0.001 µM is 83%.
